Laboratory results: patent US20150004174A1

Target: cynomolgus monkey PCSK9, V5-6xHis tagged (cynomolgus monkey)
Experiment: BIAcore solution equilibrium assay; 0.3, 1 and 3 nM cyno PCSK9 mixed with 21B12.1 in solution, free PCSK9 measured on immobilized 21B12

binding: binds
B1: 21B12 human IgG4 (from hybridoma) (antibody, V domains shown)
VH: QVQLVQSGAEVKKPGASVKVSCKASGYTLTSYGISWVRQAPGQGLEWMGWVSFYNGNTNYAQKLQGRGTMTTDPSTSTAYMELRSLRSDDTAVYYCARGYGMDVWGQGTTVTVSS
VL: QSALTQPASVSGSPGQSITISCTGTSSDVGGYNSVSWYQQHPGKAPKLMIYEVSNRPSGVSNRFSGSKSGNTASLTISGLQAEDEADYYCNSYTSTSMVFGGGTKLTVLQ

Results are given in words; binding and its absence hold for the method and conditions named. Binding calls can cover weak binding; strength is not graded here.
